Assay: Absorbance and emission spectra versus pH of SNAFL analogs in solution
Settings: free SNAFL analogs

Structure (SMILES): O=C(O)CCc1cc2c(-c3ccccc3C(=O)O)c3ccc4cc(O)c(Cl)cc4c3oc-2cc1=O [EBIO-3]
- pH at which more sensitive to changes: ~6.5
